Reference: the supplement of paper PMC6411743
± gives the standard deviation of the averaged measurements. This is one part of the list.

Chains of the proteins cited; added tags and fusions are not shown. Lines headed by an entry give the natural chain unless they say otherwise; changes in a name come on top.
UniProt Q9NX61: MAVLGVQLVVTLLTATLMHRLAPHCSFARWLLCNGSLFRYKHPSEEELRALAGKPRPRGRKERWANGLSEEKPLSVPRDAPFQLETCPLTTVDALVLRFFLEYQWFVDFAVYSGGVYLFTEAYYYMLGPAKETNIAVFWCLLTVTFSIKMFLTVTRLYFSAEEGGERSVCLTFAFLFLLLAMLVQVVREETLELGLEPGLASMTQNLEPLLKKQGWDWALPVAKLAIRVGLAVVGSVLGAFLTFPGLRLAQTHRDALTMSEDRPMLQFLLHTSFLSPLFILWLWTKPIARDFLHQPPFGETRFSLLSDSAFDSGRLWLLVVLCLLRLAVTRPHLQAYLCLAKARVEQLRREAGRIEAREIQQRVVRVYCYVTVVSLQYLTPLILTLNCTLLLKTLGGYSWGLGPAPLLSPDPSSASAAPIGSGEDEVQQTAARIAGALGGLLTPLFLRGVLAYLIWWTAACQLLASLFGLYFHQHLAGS
UniProt Q9UPP1: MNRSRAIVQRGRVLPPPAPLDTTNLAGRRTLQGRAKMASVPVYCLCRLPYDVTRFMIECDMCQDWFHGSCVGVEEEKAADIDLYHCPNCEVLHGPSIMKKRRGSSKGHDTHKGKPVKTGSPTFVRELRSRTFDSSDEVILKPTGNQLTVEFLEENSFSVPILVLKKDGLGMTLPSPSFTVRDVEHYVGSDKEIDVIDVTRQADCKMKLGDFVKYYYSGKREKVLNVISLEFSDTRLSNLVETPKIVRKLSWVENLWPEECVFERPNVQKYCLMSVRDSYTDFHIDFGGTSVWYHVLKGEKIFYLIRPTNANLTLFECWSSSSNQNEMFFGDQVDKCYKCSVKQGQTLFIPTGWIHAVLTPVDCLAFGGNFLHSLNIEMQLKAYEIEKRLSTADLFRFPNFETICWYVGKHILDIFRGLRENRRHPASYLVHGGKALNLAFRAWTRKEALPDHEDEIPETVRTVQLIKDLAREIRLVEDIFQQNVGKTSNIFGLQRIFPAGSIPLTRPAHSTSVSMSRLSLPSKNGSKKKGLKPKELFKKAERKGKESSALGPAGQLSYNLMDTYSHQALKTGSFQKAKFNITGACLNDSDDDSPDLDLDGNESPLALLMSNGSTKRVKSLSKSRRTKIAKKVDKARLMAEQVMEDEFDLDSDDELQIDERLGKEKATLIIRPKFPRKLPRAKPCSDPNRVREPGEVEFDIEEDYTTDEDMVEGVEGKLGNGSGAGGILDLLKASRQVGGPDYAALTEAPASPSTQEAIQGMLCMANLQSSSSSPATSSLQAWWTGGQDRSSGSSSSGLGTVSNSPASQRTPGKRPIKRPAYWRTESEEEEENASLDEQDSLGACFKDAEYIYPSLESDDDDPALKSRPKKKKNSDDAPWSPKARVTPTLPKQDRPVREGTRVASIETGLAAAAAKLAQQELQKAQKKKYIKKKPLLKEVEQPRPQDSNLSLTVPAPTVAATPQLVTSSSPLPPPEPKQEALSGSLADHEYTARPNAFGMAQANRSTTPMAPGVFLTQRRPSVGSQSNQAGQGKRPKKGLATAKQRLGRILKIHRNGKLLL
UniProt O75150, whole entry: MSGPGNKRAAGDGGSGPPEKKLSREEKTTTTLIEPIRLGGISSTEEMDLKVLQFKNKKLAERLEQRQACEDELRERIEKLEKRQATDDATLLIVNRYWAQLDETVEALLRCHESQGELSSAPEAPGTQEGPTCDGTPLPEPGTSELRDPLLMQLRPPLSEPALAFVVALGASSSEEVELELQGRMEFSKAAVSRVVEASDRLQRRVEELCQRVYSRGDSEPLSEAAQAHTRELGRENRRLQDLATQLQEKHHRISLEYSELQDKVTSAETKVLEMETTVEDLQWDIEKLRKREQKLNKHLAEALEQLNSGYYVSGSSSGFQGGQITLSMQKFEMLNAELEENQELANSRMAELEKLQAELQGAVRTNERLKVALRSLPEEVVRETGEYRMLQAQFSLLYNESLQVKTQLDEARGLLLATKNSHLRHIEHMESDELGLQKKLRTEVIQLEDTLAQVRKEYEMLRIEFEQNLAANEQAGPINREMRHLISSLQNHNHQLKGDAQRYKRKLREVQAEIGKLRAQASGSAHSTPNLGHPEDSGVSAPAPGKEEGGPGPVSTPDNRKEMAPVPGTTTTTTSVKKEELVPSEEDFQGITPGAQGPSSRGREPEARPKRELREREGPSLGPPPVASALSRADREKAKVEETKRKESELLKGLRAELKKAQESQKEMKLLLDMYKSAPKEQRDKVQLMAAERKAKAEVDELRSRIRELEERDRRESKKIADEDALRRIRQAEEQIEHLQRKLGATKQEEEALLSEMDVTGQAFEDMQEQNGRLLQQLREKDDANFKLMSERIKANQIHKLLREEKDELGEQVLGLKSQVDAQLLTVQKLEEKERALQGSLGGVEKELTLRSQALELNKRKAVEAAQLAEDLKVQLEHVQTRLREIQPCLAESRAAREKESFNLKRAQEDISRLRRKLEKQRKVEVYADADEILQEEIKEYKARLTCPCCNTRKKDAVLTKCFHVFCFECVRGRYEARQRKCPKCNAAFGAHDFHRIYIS
UniProt Q9BSU1: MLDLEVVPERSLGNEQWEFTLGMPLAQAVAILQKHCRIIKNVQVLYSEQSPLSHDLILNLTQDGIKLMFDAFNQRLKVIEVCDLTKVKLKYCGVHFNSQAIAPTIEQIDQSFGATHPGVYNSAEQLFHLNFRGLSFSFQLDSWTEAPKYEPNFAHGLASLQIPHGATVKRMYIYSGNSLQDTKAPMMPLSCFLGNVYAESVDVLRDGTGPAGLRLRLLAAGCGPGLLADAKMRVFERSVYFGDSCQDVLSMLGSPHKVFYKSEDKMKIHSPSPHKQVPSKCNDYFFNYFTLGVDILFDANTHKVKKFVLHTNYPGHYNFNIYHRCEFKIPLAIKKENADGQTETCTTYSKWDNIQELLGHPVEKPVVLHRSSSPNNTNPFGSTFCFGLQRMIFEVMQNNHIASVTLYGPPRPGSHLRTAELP
UniProt P53041: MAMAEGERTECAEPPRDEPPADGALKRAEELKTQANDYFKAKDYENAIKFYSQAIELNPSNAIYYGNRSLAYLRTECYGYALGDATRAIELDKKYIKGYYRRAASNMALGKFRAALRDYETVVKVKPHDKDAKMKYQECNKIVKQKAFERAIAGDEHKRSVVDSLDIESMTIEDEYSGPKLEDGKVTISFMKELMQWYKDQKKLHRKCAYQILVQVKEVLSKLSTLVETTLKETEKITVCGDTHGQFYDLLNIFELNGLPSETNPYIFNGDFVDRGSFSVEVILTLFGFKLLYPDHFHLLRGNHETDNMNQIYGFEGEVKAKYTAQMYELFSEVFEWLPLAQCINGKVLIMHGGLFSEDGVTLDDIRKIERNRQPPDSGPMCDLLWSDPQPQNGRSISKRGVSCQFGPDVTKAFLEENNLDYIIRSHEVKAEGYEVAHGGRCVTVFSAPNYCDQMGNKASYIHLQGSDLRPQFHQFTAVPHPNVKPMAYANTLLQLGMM
UniProt Q9BSJ5: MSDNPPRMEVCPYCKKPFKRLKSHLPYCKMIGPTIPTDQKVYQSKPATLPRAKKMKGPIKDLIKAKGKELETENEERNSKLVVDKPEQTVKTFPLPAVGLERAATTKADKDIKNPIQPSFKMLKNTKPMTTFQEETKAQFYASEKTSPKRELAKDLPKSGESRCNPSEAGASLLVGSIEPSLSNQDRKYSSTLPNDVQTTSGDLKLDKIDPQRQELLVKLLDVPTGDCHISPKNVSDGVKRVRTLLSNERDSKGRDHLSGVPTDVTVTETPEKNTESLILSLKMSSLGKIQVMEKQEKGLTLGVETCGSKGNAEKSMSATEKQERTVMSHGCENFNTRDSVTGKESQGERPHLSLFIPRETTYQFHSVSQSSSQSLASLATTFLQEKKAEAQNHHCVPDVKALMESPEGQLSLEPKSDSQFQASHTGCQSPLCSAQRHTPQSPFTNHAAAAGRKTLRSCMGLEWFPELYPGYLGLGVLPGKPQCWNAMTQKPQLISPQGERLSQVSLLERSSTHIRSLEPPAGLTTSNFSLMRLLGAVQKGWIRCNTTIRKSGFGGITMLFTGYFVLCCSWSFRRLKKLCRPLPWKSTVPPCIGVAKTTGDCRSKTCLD
UniProt P67936, whole entry: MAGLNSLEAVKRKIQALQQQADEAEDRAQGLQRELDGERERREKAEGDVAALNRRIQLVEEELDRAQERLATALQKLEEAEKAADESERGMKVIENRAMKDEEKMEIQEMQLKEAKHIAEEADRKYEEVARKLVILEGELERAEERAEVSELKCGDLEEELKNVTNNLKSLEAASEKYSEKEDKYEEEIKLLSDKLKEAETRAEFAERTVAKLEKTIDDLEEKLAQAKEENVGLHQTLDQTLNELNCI
UniProt Q9BUL5: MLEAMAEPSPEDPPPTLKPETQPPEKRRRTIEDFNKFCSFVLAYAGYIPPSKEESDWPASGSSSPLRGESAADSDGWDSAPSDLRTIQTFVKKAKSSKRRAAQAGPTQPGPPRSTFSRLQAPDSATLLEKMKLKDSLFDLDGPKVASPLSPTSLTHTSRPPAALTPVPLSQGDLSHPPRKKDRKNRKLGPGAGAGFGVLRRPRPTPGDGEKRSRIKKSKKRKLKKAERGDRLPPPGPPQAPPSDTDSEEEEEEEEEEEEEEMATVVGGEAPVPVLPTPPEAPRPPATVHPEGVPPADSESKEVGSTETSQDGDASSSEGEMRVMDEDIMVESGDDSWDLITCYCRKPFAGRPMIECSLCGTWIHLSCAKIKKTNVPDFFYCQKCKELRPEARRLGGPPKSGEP
UniProt P06865: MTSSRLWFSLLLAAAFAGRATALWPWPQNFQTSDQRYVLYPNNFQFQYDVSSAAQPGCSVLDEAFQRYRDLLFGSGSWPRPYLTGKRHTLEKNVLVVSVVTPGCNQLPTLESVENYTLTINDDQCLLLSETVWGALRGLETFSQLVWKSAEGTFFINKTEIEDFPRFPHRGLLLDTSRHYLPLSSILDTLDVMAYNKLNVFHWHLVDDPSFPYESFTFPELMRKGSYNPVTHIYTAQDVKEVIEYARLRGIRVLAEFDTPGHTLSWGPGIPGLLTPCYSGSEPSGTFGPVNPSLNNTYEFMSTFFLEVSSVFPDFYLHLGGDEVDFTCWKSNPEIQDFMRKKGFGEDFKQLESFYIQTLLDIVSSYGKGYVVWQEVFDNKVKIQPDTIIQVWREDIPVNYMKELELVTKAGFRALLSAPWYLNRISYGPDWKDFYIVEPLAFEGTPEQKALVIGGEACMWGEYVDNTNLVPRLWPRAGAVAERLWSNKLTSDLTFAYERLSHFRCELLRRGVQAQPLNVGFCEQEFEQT
UniProt Q8NEW0: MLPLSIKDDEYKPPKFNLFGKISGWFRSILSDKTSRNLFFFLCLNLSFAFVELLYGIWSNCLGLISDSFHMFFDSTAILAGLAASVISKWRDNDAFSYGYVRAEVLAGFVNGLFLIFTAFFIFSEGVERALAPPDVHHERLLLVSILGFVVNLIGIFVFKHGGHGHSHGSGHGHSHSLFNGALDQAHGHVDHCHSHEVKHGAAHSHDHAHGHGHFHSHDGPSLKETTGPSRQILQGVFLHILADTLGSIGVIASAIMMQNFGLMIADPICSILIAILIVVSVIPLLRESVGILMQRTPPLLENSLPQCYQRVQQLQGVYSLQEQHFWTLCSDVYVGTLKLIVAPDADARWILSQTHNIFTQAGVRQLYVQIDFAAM
UniProt P49642: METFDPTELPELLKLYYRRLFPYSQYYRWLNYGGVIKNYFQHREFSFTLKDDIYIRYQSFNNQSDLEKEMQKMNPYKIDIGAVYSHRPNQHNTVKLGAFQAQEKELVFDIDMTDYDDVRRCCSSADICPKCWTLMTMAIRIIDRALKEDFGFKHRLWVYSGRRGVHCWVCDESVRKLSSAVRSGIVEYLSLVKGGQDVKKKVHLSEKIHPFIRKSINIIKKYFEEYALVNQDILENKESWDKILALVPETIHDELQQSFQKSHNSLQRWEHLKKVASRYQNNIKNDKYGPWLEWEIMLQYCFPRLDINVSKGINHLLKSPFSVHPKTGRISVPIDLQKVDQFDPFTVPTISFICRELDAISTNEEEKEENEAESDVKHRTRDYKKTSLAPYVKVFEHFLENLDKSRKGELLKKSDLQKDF
UniProt Q96GD4, whole entry: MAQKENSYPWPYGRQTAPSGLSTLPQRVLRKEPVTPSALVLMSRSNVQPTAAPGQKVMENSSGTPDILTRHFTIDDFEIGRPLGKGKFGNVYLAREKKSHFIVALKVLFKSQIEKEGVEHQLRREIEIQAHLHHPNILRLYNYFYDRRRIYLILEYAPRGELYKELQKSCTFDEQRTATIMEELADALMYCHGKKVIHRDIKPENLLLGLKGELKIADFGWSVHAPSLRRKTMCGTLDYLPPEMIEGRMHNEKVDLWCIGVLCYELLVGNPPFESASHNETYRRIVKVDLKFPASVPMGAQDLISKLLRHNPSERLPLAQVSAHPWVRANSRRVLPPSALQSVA
UniProt Q8TCD5: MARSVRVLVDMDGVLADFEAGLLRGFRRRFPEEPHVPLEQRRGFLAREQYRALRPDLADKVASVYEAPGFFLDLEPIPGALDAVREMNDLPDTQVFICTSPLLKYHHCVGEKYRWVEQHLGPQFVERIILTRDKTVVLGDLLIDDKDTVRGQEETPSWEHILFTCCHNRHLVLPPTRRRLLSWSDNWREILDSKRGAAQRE

Compound: Nc1nc2c(ncn2[C@@H]2O[C@H](COP(=O)(O)OP(=O)(O)OP(=O)(O)O)[C@@H](O)[C@H]2O)c(=O)[nH]1 [guanosine triphosphate]
Assay: NP40-soluble protein abundance relative to vehicle (solubility fold change) (ratio); higher = more soluble protein in presence of GTP
Procedure, shortened: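 Jurkat crude lysate (Dounce-homogenised) was treated with eight concentrations from 0.1 to 10 mM for 10 min at room temperature, then 3 min at 37 °C. It was solubilised with 0.8% NP40 and benzonase (60 min, 4 °C) and ultracentrifuged, and the supernatant was TMT-labelled for LC-MS/MS. Intensities were vsn-normalised, and the value is the fold change against the NP40-processed vehicle per replicate, from three independent experiments.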

Target | NP40-soluble protein abundance (concentration: 0.1mM) | NP40-soluble protein abundance (concentration: 0.5mM) | NP40-soluble protein abundance (concentration: 1mM) | NP40-soluble protein abundance (concentration: 2mM) | NP40-soluble protein abundance (concentration: 4mM) | NP40-soluble protein abundance (concentration: 6mM) | NP40-soluble protein abundance (concentration: 8mM) | NP40-soluble protein abundance (concentration: 10mM)
K7EPA3 and related entries (UniProt Q9NX61) | 1.12 ± 0.13 | 1.08 ± 0.11 | 0.974 ± 0.049 | 1.01 ± 0.15 | 0.881 ± 0.094 | 0.945 ± 0.11 | 0.963 ± 0.079 | 0.914 ± 0.073
K7EJB9 and related entries (UniProt P27797) | 0.935 ± 0.064 | 0.958 ± 0.052 | 0.946 ± 0.075 | 0.885 ± 0.081 | 0.879 ± 0.097 | 0.882 ± 0.086 | 0.892 ± 0.07 | 0.872 ± 0.073
H7BZJ3 and related entries (UniProt P30101) | 0.921 ± 0.064 | 0.949 ± 0.053 | 0.927 ± 0.068 | 0.882 ± 0.071 | 0.864 ± 0.072 | 0.877 ± 0.067 | 0.872 ± 0.061 | 0.869 ± 0.065
H0Y3N9 and related entries (UniProt Q9UPP1) | 0.967 ± 0.038 | 0.98 ± 0.056 | 1.03 ± 0.072 | 1.04 ± 0.08 | 1.06 ± 0.054 | 1.12 ± 0.095 | 1.14 ± 0.021 | 1.15 ± 0.072
J3KR97 and related entries (UniProt Q9BTW9) | 1.07 ± 0.081 | 1.05 ± 0.092 | 0.945 ± 0.069 | 0.978 ± 0.14 | 0.964 ± 0.1 | 0.928 ± 0.081 | 0.888 ± 0.043 | 0.88 ± 0.068
H3BRQ0 and related entries (UniProt Q96CD2) | 0.9802 ± 0.0077 | 0.959 ± 0.041 | 0.975 ± 0.037 | 0.89 ± 0.034 | 0.933 ± 0.056 | 0.878 ± 0.037 | 0.882 ± 0.13 | 0.867 ± 0.023
H3BP71 and related entries (UniProt O75150) | 0.987 ± 0.037 | 0.983 ± 0.051 | 0.992 ± 0.059 | 0.967 ± 0.066 | 0.983 ± 0.045 | 0.979 ± 0.052 | 1 ± 0.038 | 0.992 ± 0.051
H3BS58 and related entries (UniProt Q9BSU1) | 1.06 ± 0.078 | 1.01 ± 0.041 | 0.972 ± 0.025 | 1.02 ± 0.043 | 1.04 ± 0.035 | 0.971 ± 0.037 | 0.976 ± 0.023 | 0.876 ± 0.011
H0Y4T4 and related entries (UniProt Q5SW79) | 0.981 ± 0.061 | 0.97 ± 0.069 | 1.01 ± 0.028 | 1.02 ± 0.061 | 1.05 ± 0.072 | 1.06 ± 0.06 | 1.12 ± 0.13 | 1.13 ± 0.12
H0YN26 and related entries (UniProt P39687) | 0.904 ± 0.016 | 0.84 ± 0.017 | 1.03 ± 0.059 | 0.928 ± 0.025 | 0.976 ± 0.061 | 0.939 ± 0.025 | 1.01 ± 0.06 | 1.01 ± 0.033
H0YDU8 and related entries (UniProt P53041) | 0.974 ± 0.017 | 0.986 ± 0.016 | 0.932 ± 0.018 | 0.918 ± 0.023 | 0.905 ± 0.036 | 0.897 ± 0.023 | 0.888 ± 0.056 | 0.855 ± 0.051
H0Y5B4 and related entries (UniProt P83881) | 0.995 ± 0.048 | 1.02 ± 0.057 | 1.05 ± 0.075 | 1.02 ± 0.015 | 0.9783 ± 0.0024 | 0.949 ± 0.041 | 0.776 ± 0.16 | 1.03 ± 0.047
I3L072 and related entries (UniProt Q9BSJ5) | 1.02 ± 0.058 | 0.927 ± 0.089 | 1.05 ± 0.067 | 0.961 ± 0.022 | 1.07 ± 0.065 | 1.04 ± 0.084 | 1.05 ± 0.027 | 0.999 ± 0.058
H7C0Q6 and related entries (UniProt Q9C037) | 1.08 ± 0.076 | 1.037 ± 0.0073 | 1.03 ± 0.068 | 0.998 ± 0.052 | 0.968 ± 0.069 | 0.981 ± 0.063 | 0.979 ± 0.07 | 0.918 ± 0.074
J3KN59 and related entries (UniProt Q12982) | 0.933 ± 0.058 | 0.952 ± 0.077 | 0.948 ± 0.097 | 0.858 ± 0.14 | 0.798 ± 0.12 | 0.824 ± 0.11 | 0.839 ± 0.038 | 0.776 ± 0.047
K7EQW8 and related entries (UniProt P67936) | 0.803 ± 0.15 | 0.716 ± 0.089 | 1.39 ± 0.5 | 1.19 ± 0.29 | 1.27 ± 0.27 | 1.27 ± 0.21 | 1.15 ± 0.34 | 1.83 ± 0.49
K7ESL1 and related entries (UniProt P83876) | 1.02 ± 0.017 | 1.07 ± 0.033 | 1.04 ± 0.024 | 1.01 ± 0.085 | 1.04 ± 0.074 | 1.07 ± 0.033 | 1.11 ± 0.088 | 1.09 ± 0.17
I3L4Q4 and related entries (UniProt Q9BUL5) | 0.948 ± 0.09 | 0.925 ± 0.13 | 0.936 ± 0.093 | 0.912 ± 0.14 | 0.917 ± 0.12 | 0.891 ± 0.12 | 0.915 ± 0.081 | 0.927 ± 0.12
H3BP20 and related entries (UniProt P06865) | 1.06 ± 0.082 | 1.05 ± 0.088 | 0.966 ± 0.036 | 0.96 ± 0.07 | 0.922 ± 0.051 | 0.932 ± 0.049 | 0.901 ± 0.027 | 0.862 ± 0.032
H0Y362 and related entries (UniProt Q8NEW0) | 1.21 ± 0.043 | 1.14 ± 0.018 | 1.14 ± 0.026 | 1.13 ± 0.1 | 1.05 ± 0.062 | 1.05 ± 0.11 | 1.04 ± 0.055 | 0.959 ± 0.013
H0YIP2 and related entries (UniProt P49642) | 0.99 ± 0.044 | 0.991 ± 0.014 | 0.9615 ± 0.0063 | 0.954 ± 0.032 | 0.954 ± 0.026 | 0.976 ± 0.027 | 0.9486 ± 0.0078 | 0.927 ± 0.045
J3KRF8 and related entries (UniProt Q96GD4) | 1.09 ± 0.035 | 1.14 ± 0.099 | 1.13 ± 0.054 | 1.15 ± 0.11 | 1.18 ± 0.14 | 1.32 ± 0.12 | 1.32 ± 0.092 | 1.34 ± 0.11
J9JIE6 and related entries (UniProt Q9UM00) | 0.961 ± 0.022 | 0.951 ± 0.066 | 0.998 ± 0.058 | 0.985 ± 0.077 | 1.03 ± 0.04 | 0.999 ± 0.07 | 1.04 ± 0.023 | 1.08 ± 0.061
H0YDG7 and related entries (UniProt P30154) | 1.02 ± 0.056 | 0.998 ± 0.018 | 1.01 ± 0.041 | 0.972 ± 0.034 | 0.991 ± 0.065 | 0.942 ± 0.034 | 0.953 ± 0.085 | 0.946 ± 0.031
J3KRC4 and related entries (UniProt Q8TCD5) | 0.986 ± 0.054 | 0.977 ± 0.081 | 0.958 ± 0.082 | 0.925 ± 0.096 | 0.863 ± 0.09 | 0.919 ± 0.11 | 0.839 ± 0.04 | 0.841 ± 0.046
J3QLK0 and related entries (UniProt P60763) | 1.21 ± 0.22 | 1.18 ± 0.17 | 1.06 ± 0.15 | 1.01 ± 0.25 | 1.02 ± 0.17 | 0.97 ± 0.16 | 0.95 ± 0.12 | 0.876 ± 0.16

Record cards, from the list above. Order of values: NP40-soluble protein abundance (concentration: 0.1mM) | NP40-soluble protein abundance (concentration: 0.5mM) | NP40-soluble protein abundance (concentration: 1mM) | NP40-soluble protein abundance (concentration: 2mM) | NP40-soluble protein abundance (concentration: 4mM) | NP40-soluble protein abundance (concentration: 6mM) | NP40-soluble protein abundance (concentration: 8mM) | NP40-soluble protein abundance (concentration: 10mM)
H0Y362 and related entries (UniProt Q8NEW0) in the list: 1.21 ± 0.043 | 1.14 ± 0.018 | 1.14 ± 0.026 | 1.13 ± 0.1 | 1.05 ± 0.062 | 1.05 ± 0.11 | 1.04 ± 0.055 | 0.959 ± 0.013
J9JIE6 and related entries (UniProt Q9UM00) in the list: 0.961 ± 0.022 | 0.951 ± 0.066 | 0.998 ± 0.058 | 0.985 ± 0.077 | 1.03 ± 0.04 | 0.999 ± 0.07 | 1.04 ± 0.023 | 1.08 ± 0.061
